{"source": "PubChem BioAssay AID624297", "about": "(National Center for Advancing Translational Sciences (NCATS), 2012)", "note": "The whole screen tested about 340,000 compounds, of which about 6,200 (1.8%) were called active. Inconclusive results, whose numbers are uncertain, are shown with a selection of clear calls. Calls follow the shape of the dose curve; as a rule, active = well fitted activation curve with a large enough effect; inconclusive = small, poorly fitted or top-dose-only effect; inactive = no such curve, though single readings can be large or run the other way. A potency beside an inconclusive call is a rough fit, not a confirmed value. Potency is read from the fitted curve at half-maximal effect."}
{"test": "A quantitative high throughput screen for small molecules that induce DNA re-replication in SW480 colon adenocarcinoma cells; also: nearly all actives have a fitted effect of over 55% in size; as to re-replication activation: % of control where 0% means no effect.", "conditions": "Hoechst DNA content imaging, 48 h; re-replication activation: at 46.1 µM (top of the series) unless noted", "in_short": "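Image-based read-out: total Hoechst fluorescence of nuclei (405 nm excitation, 500-530 nm emission), with hits raising the fraction of high-intensity nuclei. SW480 colon cells incubated 48 hr with compounds at 37 C.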"}
{"smiles": "COc1cc2c(cc1NC(=O)C(F)(F)F)-c1ccc(NC(=O)C(F)(F)F)cc1C2", "re-replication activation": "inactive: 1.35%"}
{"smiles": "NC(=O)c1nsc(C(=O)N(c2ccccc2)C(C(=O)NCC2CCCO2)c2cccs2)c1N", "note": "(centres undefined)", "re-replication activation": "inactive: 3.93%"}
{"smiles": "O=C(CNS(=O)(=O)c1ccc(Br)cc1Cl)OCC(=O)N1CCCC1=O", "Potency": "inconclusive: 9.2 µM [activator, partial curve, poor fit]"}
{"smiles": "Cc1cc(C)c(NC(=O)c2cccc(NC(=O)c3ccco3)c2)c(C)c1", "Potency": "inconclusive: 4.61 µM [activator, full curve, poor fit]"}
{"smiles": "O=C1c2ccccc2-c2c1cccc2C(=O)N1CCCCCC1", "Potency": "active: 23.1 µM"}
{"smiles": "COCCCNCCCOc1ccc(C)cc1Br", "re-replication activation": "inactive: -0.5%"}
{"smiles": "CSc1cccc(NC(=O)C2CCCN(S(=O)(=O)c3ccc(F)cc3)C2)c1", "note": "(centres undefined)", "re-replication activation": "inactive: 1.58%"}
{"smiles": "CC(C)(C)C(=O)N1CCN(c2ccc(Cl)cc2[N+](=O)[O-])CC1", "Potency": "inconclusive: 4.11 µM [activator, single point]"}
{"smiles": "Cc1ccccc1OCC(=O)N/N=C/c1ccc(N(C)C)cc1", "Potency": "inconclusive: 20.6 µM [activator, single point]"}
{"smiles": "CC(C)NC(=O)[C@H]1N2C(=O)c3ccccc3C2SC1(C)C", "note": "(some centres undefined)", "re-replication activation": "inactive: -0.931%"}
{"smiles": "COC(=O)/C=C/C(=O)Nc1cccc(C(F)(F)F)c1", "Potency": "inconclusive: 23.1 µM [activator, partial curve, poor fit]"}
{"smiles": "O=C(NC1CCN(Cc2ccccc2)CC1)c1cc(S(=O)(=O)Nc2ccc(F)cc2)ccc1Cl", "re-replication activation": "inactive: 0.49%"}
{"smiles": "O=C(O)CCC(=O)c1cccc2ccccc12", "re-replication activation": "inactive: -8.73%"}
{"smiles": "Cc1nn(C)c(C)c1S(=O)(=O)N1CCCC(C(=O)NC2CCCCCC2)C1", "note": "(centres undefined)", "re-replication activation": "inactive: -6.55%"}
{"smiles": "Cc1[nH]n(-c2ccccc2)c(=O)c1/C=N/NC(=O)COc1ccccc1[N+](=O)[O-]", "Potency": "active: 13 µM"}
{"smiles": "CC(=O)Nc1ccc(S(=O)(=O)Nc2ccccc2C(=O)N2CCOCC2)cc1", "re-replication activation": "inactive: -7.41%"}
{"smiles": "Cc1ccc(S(=O)(=O)N2c3ccccc3OCC2c2ccccc2)cc1", "note": "(centres undefined)", "Potency": "inconclusive: 29.1 µM [activator, single point]"}
{"smiles": "CCN(CC)Cc1c(O)ccc2c1O/C(=C\\C=C\\c1ccccc1)C2=O", "Potency": "inconclusive: 29.1 µM [activator, single point]"}
{"smiles": "CC(C)(C)CC(C)(C)NCC(O)COc1ccc2c(c1)CCC2", "note": "(centres undefined)", "Potency": "inconclusive: 20.6 µM [activator, single point]"}
{"smiles": "CCN(c1ccccc1)S(=O)(=O)c1ccc(C(=O)N(CCCN(C)C)c2nc3c(C)cccc3s2)cc1", "Potency": "inconclusive: 29.1 µM [activator, single point]"}
{"smiles": "COc1ccc(NC(=O)CSc2nnc(-c3cc(C)[nH]n3)n2N)cc1OC", "Potency": "inconclusive: 20.6 µM [activator, partial curve, poor fit]"}
{"smiles": "CCOC(=O)c1c(NC(=O)C(=O)N/N=C/c2ccccc2O)sc2c1CCCCC2", "Potency": "inconclusive: 16.4 µM [activator, single point]"}
{"smiles": "O=C(N/N=C/c1c[nH]c2ccccc12)c1[nH]c2ccc(Br)cc2c1-c1ccccc1", "Potency": "active: 8.2 µM"}
{"smiles": "Cc1nn(Cc2ccc(Cl)c(Cl)c2)c(C)c1NC(=O)c1cc(-c2ccco2)on1", "Potency": "inconclusive: 20.6 µM [activator, single point]"}
{"smiles": "O=C(NC(Cc1ccccc1)C(=O)O)/C(=C\\c1ccco1)NC(=O)c1ccccc1Br", "note": "(centres undefined)", "Potency": "inconclusive: 0.092 µM [activator, full curve, poor fit]"}
{"smiles": "Cc1[nH]n2c(=O)cc(-c3ccc([N+](=O)[O-])cc3)nc2c1-c1ccccc1", "Potency": "inconclusive: 25.9 µM [activator, single point]"}
{"smiles": "FC(F)(F)c1cnc(N2CCC(=NOCc3ccc(Cl)cc3)CC2)c(Cl)c1", "Potency": "inconclusive: 20.6 µM [activator, single point]"}
{"smiles": "O=C(c1cccc(NS(=O)(=O)c2ccc(F)cc2)c1)N1CCN(c2ccccc2)CC1", "Potency": "inconclusive: 0.103 µM [activator, full curve, poor fit]"}
{"smiles": "CC1(C)CC(O)C(C)(C)N1O", "note": "(centres undefined)", "Potency": "inconclusive: 0.259 µM [activator, full curve, poor fit]"}
{"smiles": "O=C(NCC1CCCCC1)c1ccc(F)c(S(=O)(=O)N2CCOCC2)c1", "Potency": "inconclusive: 1.3 µM [activator, partial curve, poor fit]"}
{"smiles": "O=C(COC(=O)c1cccs1)Nc1ccccc1", "Potency": "inconclusive: 6.51 µM [activator, partial curve, poor fit]"}
{"smiles": "COc1cccc(CNc2ccc(N3CCC(C)CC3)cc2)c1OC", "re-replication activation": "inactive: 8.38%"}
{"smiles": "COc1ccc(-c2[nH]ncc2/C=N\\NC(=O)c2cccs2)cc1OC", "Potency": "inconclusive: 23.1 µM [activator, single point]"}
{"smiles": "COC(=O)CCn1nc(-c2ccc(C)cc2)c2ccccc2c1=O", "re-replication activation": "inconclusive: 53% [activator]"}
{"smiles": "O=C(CNC(=O)c1cccc(Cl)c1)NCCCSc1ccccc1", "re-replication activation": "inactive: -1.96%"}
{"smiles": "CC(C)(C)C(=O)Nc1ccc(C(=O)N/N=C/c2ccccc2OC(=O)c2ccccc2)cc1", "Potency": "inconclusive: 5.8 µM [activator, single point]"}
{"smiles": "CCN(CC)C(=O)[C@H]1C[C@H](CC(=O)NCC23CC4CC(CC(C4)C2)C3)C(=O)N2CCc3c([nH]c4ccc(Cl)cc34)[C@]12C", "Potency": "active: 14.6 µM"}
{"smiles": "Cc1ccc2cc(CN(CCN(C)C)C(=S)Nc3ccccc3)c(=O)[nH]c2c1C", "Potency": "inconclusive: 29.1 µM [activator, single point]"}
{"smiles": "COc1ccccc1OCc1ccc(C(=O)Nc2cc(OC)c(OC)c(OC)c2)o1", "Potency": "inconclusive: 29.1 µM [activator, single point]"}
{"smiles": "O=C(NC(=S)Nc1c(F)cc(F)cc1Br)c1ccc2c(c1)OCCO2", "Potency": "inconclusive: 29.1 µM [activator, single point]"}
{"smiles": "C/C(=N\\Nc1ccc([N+](=O)[O-])cc1)c1ccc(O)cc1", "Potency": "active: 23.1 µM"}
{"smiles": "Nc1nonc1-n1nnc(C(=O)N/N=C/c2cccnc2)c1CSc1ccc(Cl)cc1", "re-replication activation": "inactive: 13.2%"}
{"smiles": "COc1ccc(C(=O)OCC(=O)NC(C)CCc2ccccc2)cc1OC", "note": "(centres undefined)", "re-replication activation": "inactive: -20.4%"}
{"smiles": "N#Cc1c(-c2cccc(Br)c2)cc(-c2ccco2)[nH]c1=O", "Potency": "inconclusive: 18.4 µM [activator, partial curve, poor fit]"}
